In test [1] the target is truncated SF3B1, HEAT repeat domain residues 454-1304, with N-terminal FLAG tag (human) (UniProt O75533). In words: recombinant four-protein complex, co-purification.
Test [2] has the same target. In words: co-expression in SF21 cells, co-purification on nickel and FLAG beads, gel filtration. In general terms: SEC sorts molecules by how far they enter the pores of the column.

The chains behind the UniProt entries cited, without tags or fusion partners. Where a name states a change or a piece, a line headed by the entry shows the natural chain unless it says otherwise. Residues count along the entry.
UniProt O75533: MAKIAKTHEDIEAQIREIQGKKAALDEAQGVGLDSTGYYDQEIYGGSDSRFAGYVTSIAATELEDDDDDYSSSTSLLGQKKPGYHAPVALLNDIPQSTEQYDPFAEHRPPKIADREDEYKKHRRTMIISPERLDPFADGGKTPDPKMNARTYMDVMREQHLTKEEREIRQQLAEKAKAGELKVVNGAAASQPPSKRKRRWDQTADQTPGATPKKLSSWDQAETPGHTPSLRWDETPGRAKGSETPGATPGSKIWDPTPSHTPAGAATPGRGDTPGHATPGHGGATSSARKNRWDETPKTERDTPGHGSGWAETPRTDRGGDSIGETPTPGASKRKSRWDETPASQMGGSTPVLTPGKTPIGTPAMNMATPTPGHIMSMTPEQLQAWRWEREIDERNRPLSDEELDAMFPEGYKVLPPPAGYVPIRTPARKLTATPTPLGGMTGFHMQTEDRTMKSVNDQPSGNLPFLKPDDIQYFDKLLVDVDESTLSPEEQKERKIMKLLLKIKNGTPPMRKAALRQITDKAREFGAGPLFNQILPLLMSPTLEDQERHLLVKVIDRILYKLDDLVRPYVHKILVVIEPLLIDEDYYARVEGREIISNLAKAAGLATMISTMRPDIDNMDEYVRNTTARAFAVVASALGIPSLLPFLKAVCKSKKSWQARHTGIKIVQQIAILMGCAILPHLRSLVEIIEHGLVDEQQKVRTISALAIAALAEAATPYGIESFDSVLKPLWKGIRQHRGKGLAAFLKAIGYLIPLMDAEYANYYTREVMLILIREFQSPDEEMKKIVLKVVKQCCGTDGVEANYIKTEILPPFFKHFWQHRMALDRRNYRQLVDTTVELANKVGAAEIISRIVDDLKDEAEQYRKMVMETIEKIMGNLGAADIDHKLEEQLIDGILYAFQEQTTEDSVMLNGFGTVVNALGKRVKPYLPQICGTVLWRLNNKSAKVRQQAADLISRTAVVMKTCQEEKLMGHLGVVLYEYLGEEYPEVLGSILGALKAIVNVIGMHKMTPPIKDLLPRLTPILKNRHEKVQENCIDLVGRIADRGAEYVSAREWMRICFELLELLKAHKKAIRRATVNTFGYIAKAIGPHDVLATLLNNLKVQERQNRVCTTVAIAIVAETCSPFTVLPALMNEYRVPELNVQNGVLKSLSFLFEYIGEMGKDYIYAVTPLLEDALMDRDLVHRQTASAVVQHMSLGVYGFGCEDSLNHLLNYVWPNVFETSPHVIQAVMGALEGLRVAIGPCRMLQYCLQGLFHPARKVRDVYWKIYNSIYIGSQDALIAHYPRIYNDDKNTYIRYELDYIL
UniProt Q15393: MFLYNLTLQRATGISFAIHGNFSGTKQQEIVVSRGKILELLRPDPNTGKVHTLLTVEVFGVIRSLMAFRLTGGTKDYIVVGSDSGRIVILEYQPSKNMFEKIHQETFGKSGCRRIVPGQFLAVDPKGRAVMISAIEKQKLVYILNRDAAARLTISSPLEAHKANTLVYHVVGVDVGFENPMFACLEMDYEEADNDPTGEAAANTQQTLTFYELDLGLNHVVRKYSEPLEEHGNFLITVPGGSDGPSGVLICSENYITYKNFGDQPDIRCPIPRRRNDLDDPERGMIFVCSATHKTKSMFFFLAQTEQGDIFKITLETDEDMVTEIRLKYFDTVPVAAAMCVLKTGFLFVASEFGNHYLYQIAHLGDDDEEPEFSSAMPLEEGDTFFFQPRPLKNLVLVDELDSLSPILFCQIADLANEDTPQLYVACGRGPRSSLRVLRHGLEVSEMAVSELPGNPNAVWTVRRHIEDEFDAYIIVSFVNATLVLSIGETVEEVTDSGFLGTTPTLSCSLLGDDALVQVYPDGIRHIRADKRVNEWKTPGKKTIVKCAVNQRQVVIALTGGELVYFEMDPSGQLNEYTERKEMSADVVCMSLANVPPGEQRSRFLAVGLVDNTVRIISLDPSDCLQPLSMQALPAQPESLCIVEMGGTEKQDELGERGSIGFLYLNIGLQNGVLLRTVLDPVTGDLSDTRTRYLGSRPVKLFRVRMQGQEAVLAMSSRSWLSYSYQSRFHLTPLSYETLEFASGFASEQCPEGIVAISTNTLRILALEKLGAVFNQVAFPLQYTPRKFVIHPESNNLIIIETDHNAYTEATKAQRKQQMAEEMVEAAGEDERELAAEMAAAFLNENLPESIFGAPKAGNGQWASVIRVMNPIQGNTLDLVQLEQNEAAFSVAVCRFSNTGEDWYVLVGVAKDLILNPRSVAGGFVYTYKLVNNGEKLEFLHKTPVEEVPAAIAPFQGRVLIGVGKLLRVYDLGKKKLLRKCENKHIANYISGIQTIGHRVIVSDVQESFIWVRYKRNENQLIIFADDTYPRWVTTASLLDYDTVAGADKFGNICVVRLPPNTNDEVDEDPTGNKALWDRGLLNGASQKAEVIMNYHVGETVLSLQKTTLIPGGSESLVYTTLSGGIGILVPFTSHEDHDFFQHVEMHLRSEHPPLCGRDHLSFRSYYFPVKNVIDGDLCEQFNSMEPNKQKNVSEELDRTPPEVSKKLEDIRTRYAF
UniProt Q9BWJ5, residues 2-86: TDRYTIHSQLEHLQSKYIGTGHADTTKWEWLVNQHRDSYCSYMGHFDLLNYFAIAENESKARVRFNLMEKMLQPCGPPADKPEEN

Results are given in words; binding and its absence hold for the method and conditions named. Binding seen in cells or lysates may run through a third protein. Some binding calls cover weakened binding; strength is not graded here.

This is an account of results in US20200190593A1, “SPLICEOSOME MUTATIONS AND USES THEREOF” (EISAI R&D MANAGEMENT CO., LTD., priority 2017, published 2020).

Take “full-length SF3B3 with N-terminal His-tag (from UniProt Q15393 1-1217)”: the binding entry in test [1] and in test [2] was “binds” throughout.
For the substance “full-length SF3B5 with N-terminal His-tag (from UniProt Q9BWJ5 2-86)”, the binding entry in test [1] and in test [2] was “binds” each time.
